The values that follow come from US20230184759A1, “IN VITRO METHOD FOR DETECTION OF INFECTIONS CAUSED BY PSEUDOMONAS AERUGINOSA” (CONSEJO SUPERIOR DE INVESTIGACIONES CIENTIFICAS (CSIC), priority 2020, published 2023).

Assay type in all cases: binding, rabbit
One series deals with As382. Kind of series: Competitive indirect ELISA for detection of HHQ (As382, coating antigen I-7). How it is done:
(§1) The competitive assay was carried out in a 96 well Maxisorp flat-bottom plates, coated using 100 μL of a BSA conjugate solution in coating buffer pH=9.6. Then, plates were covered with adhesive plate sealer and incubated overnight at 4° C. The day after, plates were washed with PBST (4×300 μL) using the platewasher Biotek ELx405 HT. Sequentially, 50 μL of the corresponding sample solution, containing the analyte HHQ, PQS or HQNO (2 μM to 0.13 nM) or MH medium were added, followed by 50 μL addition of a fixed As dilution and left without agitation 30 min at RT. After another washing step, a 1/6000 dilution of goat AntiRabbit IgG-HRP in PBST was added and incubated 30 min at RT. After a final washing, 100 μL of a substrate solution was added and left 30 min at RT in the dark. Once the time was consumed, the enzymatic reaction was stopped by adding 50 μl of H2SO4 4M solution and the absorbances read at 450 nm. Absorbance data were plotted and analyzed using GraphPad software. The standard calibration curve was fitted to a four-parameter equation according to the following formula: […], where A is the maximum absorbance, B is the minimum absorbance, C is the concentration producing 50% of the maximal absorbance, and D is the slope at the inflection point of the sigmoid curve. Unless otherwise indicated, the data presented correspond to the average of at least two well replicates.
(§2) Regarding specificity studies, it was followed the experimental procedure for indirect competitive ELISA described above. It was assessed the avidity of As versus other quinolone effector molecules of the pqs system from P. aeruginosa. Each assay was run using HHQ, PQS and HQNO as analyte. Cross reactivity was calculated through the equation: […].

The test system of the next series is As389. In words: Competitive indirect ELISA for detection of HQNO (As389, coating antigen I-5). The settings on record: I-5 0.250 μg/mL. How it is done: as §1, §2
A general note: ELISA stands for enzyme-linked immunosorbent assay.

The subject of another series is As385. Kind of series: Competitive indirect ELISA for detection of PQS (As385, coating antigen I-5). Particulars: I-5 0.039 μg/mL. How it is done: as §1, §2
The mark [1] stands for this setting: MH diluted 1/5, As382 dil. 1/64000, I-7 0.156 μg/mL.
The mark [2] stands for this setting: PBST, As382 dil. 1/32000, I-7 0.313 μg/mL.
Setting [3] is: MH diluted 1/5, As389 dil. 1/16000.
Where [4] appears, read: MH diluted 1/10, As385 dil. 1/64000.
Setting [5] is: PBS + 0.01% Tween + 0.1 mM EDTA, As385 dil. 1/48000.

Regarding `CCCCCCCc1cc(=O)c2ccccc2[nH]1` [HHQ, 2-heptyl-4-quinolone], in the series on As382 (setting [1]), the “Dynamic Range, lower limit” value was found to be 0.448 ± 0.081 to; the “Dynamic Range, upper limit” value worked out at 21.605 ± 4.736; the LOD is recorded as 0.167 ± 0.051; the Slope was −0.704 ± 0.015. Moreover, in the series on As382 (setting [2]), the “Dynamic Range, lower limit” value stood at 0.894 ± 0.214 to; the “Dynamic Range, upper limit” value is 22.797 ± 3.691; the LOD is 0.341 ± 0.132; the Slope is on record as −0.874 ± 0.114.

Regarding `CCCCCCCc1cc(=O)c2ccccc2n1O` [HQNO, 2-heptyl-4-quinolone N-oxide], in the series on As389 (setting [3]), the “Dynamic Range, lower limit” value amounted to 0.413 ± 0.102 to; the “Dynamic Range, upper limit” value was 17.044 ± 1.076; the LOD was 0.147 ± 0.053; the Slope is listed as −0.720 ± 0.064. In the series with As389 (PBS at pH = 6.5, As389 dil. 1), the “Dynamic Range, lower limit” value worked out at 0.723 ± 0.181 to; the “Dynamic Range, upper limit” value was found to be 26.707 ± 0.958; the LOD is listed as 0.266 ± 0.087; the Slope is −0.754 ± 0.037.

With `CCCCCCCc1[nH]c2ccccc2c(=O)c1O` [PQS, 2-heptyl-3-hydroxy-4-quinolone], in the series on As385 (setting [4]), the “Dynamic Range, lower limit” value is listed as 0.973 ± 0.250 to; the “Dynamic Range, upper limit” value is 36.157 ± 6.197; the LOD came to 0.362 ± 0.137; the Slope is recorded as −0.734 ± 0.110. In addition, in the series on As385 (setting [5]), the “Dynamic Range, lower limit” value worked out at 0.528 ± 0.043 to; the “Dynamic Range, upper limit” value turned out to be 24.365 ± 3.182; the LOD is 0.169 ± 0.012; the Slope is on record as −0.723 ± 0.006.
